This passage reports binding results from paper PMC3540053.

No constants are given. Whether binding was seen depends on the method and setting.

Common to all, as to test: two-hybrid; OsCOIs as baits in pGBKT7, OsJAZs or JAZs as preys in pGADT7, co-transformed into S. cerevisiae AH109; growth on SD without Ade, His, Leu and Trp (QDO) with 100 µM coronatine, 7 days; graded strong (+++), medium (++), weak (+), undetectable (−)
Assay [1] has as its target T1, OsCOI2(N477Y) (Oryza sativa) (UniProt Q84QA7).
T1 sequence: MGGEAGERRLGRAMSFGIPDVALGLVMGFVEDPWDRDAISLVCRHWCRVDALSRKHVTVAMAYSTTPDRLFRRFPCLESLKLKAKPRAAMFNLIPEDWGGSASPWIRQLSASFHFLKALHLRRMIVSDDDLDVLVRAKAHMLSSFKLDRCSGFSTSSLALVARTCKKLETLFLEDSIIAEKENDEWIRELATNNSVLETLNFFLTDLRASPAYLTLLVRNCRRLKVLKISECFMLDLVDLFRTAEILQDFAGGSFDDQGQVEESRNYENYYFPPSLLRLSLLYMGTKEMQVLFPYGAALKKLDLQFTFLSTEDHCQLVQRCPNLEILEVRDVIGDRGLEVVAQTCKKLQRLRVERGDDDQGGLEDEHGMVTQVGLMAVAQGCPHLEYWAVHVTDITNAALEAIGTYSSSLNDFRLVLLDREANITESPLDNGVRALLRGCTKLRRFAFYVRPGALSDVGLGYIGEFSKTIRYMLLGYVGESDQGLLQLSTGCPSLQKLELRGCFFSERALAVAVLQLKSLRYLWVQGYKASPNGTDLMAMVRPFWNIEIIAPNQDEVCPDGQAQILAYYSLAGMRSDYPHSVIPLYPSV

For the next assay, the target named is T2, OsCOI2 (Oryza sativa) (UniProt Q84QA7).
T2 sequence: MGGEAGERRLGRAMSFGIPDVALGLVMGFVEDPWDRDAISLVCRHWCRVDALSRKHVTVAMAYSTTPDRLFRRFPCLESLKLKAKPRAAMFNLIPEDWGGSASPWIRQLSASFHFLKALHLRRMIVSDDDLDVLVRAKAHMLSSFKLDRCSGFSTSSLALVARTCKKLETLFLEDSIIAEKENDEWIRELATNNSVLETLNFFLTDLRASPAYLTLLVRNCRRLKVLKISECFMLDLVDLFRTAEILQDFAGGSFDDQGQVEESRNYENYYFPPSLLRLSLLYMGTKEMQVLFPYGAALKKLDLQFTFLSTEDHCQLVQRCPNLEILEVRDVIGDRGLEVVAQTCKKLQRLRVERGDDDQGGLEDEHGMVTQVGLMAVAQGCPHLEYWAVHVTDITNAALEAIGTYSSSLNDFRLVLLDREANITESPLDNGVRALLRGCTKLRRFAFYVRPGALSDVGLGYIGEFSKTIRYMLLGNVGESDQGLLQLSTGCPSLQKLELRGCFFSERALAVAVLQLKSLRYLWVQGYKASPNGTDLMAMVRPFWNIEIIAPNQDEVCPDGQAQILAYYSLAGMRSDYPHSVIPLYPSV

For assay [2], the target named is T3, OsCOI2(F91Y) (Oryza sativa) (UniProt Q84QA7).
T3 sequence: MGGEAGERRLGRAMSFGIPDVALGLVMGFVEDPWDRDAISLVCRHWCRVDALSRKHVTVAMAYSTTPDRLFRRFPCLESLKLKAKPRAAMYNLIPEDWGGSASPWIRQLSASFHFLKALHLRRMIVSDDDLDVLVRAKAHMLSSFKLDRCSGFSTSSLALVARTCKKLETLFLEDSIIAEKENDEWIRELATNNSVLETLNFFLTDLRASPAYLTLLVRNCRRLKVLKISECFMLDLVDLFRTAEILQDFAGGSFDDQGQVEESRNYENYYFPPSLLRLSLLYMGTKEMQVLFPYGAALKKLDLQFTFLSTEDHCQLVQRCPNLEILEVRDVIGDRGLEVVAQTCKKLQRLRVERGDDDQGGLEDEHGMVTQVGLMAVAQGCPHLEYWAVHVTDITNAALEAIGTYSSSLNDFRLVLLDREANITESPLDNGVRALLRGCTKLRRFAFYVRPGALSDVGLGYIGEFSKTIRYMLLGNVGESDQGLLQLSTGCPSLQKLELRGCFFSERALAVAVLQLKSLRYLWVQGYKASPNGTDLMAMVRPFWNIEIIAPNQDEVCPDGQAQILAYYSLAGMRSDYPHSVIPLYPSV

Assay [3] deals with T4, OsCOI2(H391Y) (Oryza sativa) (UniProt Q84QA7).
T4 sequence: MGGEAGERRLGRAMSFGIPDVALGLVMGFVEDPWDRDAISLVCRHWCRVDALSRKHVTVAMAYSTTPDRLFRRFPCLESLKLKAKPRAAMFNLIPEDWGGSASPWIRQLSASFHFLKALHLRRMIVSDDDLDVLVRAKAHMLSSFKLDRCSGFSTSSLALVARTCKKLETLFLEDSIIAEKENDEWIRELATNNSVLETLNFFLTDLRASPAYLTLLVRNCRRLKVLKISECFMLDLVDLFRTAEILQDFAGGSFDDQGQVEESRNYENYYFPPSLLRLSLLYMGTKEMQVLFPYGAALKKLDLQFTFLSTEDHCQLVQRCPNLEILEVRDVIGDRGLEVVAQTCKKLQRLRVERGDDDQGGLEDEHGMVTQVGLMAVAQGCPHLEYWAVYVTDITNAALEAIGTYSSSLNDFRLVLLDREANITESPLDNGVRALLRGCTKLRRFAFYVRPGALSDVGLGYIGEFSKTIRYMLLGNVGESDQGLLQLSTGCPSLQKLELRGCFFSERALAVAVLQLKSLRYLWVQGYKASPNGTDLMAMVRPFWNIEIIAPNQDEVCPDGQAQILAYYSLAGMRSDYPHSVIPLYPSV

The next assay addresses T5, OsCOI1a (Oryza sativa) (UniProt Q6Y9P5).
T5 sequence: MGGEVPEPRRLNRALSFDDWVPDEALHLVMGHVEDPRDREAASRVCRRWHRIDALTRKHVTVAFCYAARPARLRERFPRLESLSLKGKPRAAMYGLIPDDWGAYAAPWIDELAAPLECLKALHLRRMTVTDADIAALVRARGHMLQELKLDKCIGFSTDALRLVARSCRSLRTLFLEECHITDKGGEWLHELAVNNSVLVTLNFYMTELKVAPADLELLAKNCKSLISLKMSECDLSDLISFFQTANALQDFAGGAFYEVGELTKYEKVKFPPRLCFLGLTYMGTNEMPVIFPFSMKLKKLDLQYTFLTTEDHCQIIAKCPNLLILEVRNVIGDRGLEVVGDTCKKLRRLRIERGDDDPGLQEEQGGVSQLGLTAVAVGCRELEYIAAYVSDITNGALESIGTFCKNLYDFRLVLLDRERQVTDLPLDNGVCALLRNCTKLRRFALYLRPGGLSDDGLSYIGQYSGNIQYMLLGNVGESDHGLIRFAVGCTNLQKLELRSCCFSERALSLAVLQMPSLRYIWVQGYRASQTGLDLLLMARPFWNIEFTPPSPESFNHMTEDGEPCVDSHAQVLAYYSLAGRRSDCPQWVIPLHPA

B1: OsJAZ8 (protein, UniProt Q6ES51 1-416)
chain: MERDFLGAIGKDEEQRRHAEERKESDYFGAGGGAAAAAMDWSFASRAALMSFRSSSSAAAAAAREETRELAFPHFSALDGAKMQQASHVLARQKSFGAESHGIPQYAAAAAVHGAHRGQPPHVLNGARVIPASSPFNPNNPMFRVQSSPNLPNAVGAGGGAFKQPPFAMGNAVAGSTVGVYGTRDMPKAKAAQLTIFYAGSVNVFNNVSPEKAQELMFLASRGSLPSAPTTVARMPEAHVFPPAKVTVPEVSPTKPMMLQKPQLVSSPVPAISKPISVVSQATSLPRSASSSNVDSNVTKSSGPLVVPPTSLPPPAQPETLATTTAAAIMPRAVPQARKASLARFLEKRKERVTTVAPYPLAKSPLESSDTMGSANDNKSSCTDIALSSNRDESLSLGQPRTISFCEESPSTKLQI
Consider B1, for which the binding entry (in assay [1]; with OsCOI2 (Oryza sativa); in assay [2]) was “no binding” in each case.

B2: OsJAZ5 (protein, UniProt Q84R94 1-228)
chain: MASAKSGERGSSSFAMACSLLSRYVRQNGAAAGELGLGIRGEADANKGKETMELFPQNSGFGSEAAAVKETPDAREQEKRQLTIFYGGKVLVFDDFPAEKAKDLMQMASKSSSTAQNCVLLPSSATATVADNTKVSAVPAPASALPVAQANAPKPVRPNAADLPQARKASLHRFLEKRKDRLQAKAPYQGSPSDASPVKKELQESQPWLGLGPQVAAPDLSLRQESSQ
B2: the binding entry (in assay [1]; with OsCOI2 (Oryza sativa); in assay [2]) was “no binding” throughout.

B3: OsJAZ9 (protein, UniProt Q6ZJU3 1-427)
chain: MERDFLGAIWRKEEAAGKPEEHSDYRGGGGGASAAMQWQFPATKVGAASSAFMSFRSSAAAAREEDPKEAAVFDRFSLSGFRPPPRPSPGDAFDGAAAMKQRQFGFNGRQQYAAAAQHGHREQGVDSYGVAAPHHFPSPSPSPRHPVPFGHANPMLRVHSLPNVAGGSPYRNQSFSVGNSVAGSTVGVYGGPRDLQNPKVTQMTIFYDGLVNVFDNIPVEKAQELMLLASRASIPSPPSAARKSDSPISAAAKLTVPEALPARQIVVQKPEASVPLVSGVSNPITIVSQAVTLPKSFSSSNDSAGPKSGGLPLAVTPLSQASPSQPIPVATTNASAIMPRAVPQARKASLARFLEKRKERVSSVAPYPSSKSPLESSDTIGSPSTPSKSSCTDITPSTNNCEDSLCLGQPRNISFSSQEPPSTKLQI
Consider B3, for which the binding result (in assay [1]; with OsCOI2 (Oryza sativa)) was “no binding” each time.

B4: OsJAZ10 (protein, UniProt Q7XPM8 1-216)
chain: MDLLEKKNIKKGGEVEEEVARKGEERKEEEVVVEEKSHQQQQQQGEEELVGLSLAGGRPKVFPMSSPPPNPSQLTIFYGGSVCVYDSVPPEKAQAIMLIAAAAAAAASATKSNAAIAVKPPVMPAANATQAAVSPVLTRSLSLQSTSVATGQPQVAADPSSICKLQADLPIARRHSLQRFLEKRRDRLVSKAPYPTKSSEGMEASGMEVTAEGKAQ
Turning to B4, the binding result (in assay [1]; with OsCOI2 (Oryza sativa); in assay [3]; in assay [2]; in the assay with OsCOI1a (Oryza sativa)) was “no binding” throughout.

B5: OsJAZ1 (protein, UniProt Q7XEZ1 1-171)
chain: MAAAGSSSRFAVTCGLLSQYMRERQQPQPPVTVLEAVAEEEEEEDARTMQLFPPRAAAADGVATPSAGTAPLTIFYDGRMVVVDDVPVEKAAELMRLAGSACSPPQPAHAAALPEMPIARKASLQRFLQKRKHRITTTSEPYKKAAVASPAPEKSFAVAPVKDEPATWLGL
Consider B5, for which the binding result in assay [1] is “no binding”.
